From PubChem BioAssay AID330 (DTP/NCI, 2004)
The list shows only some results of the screen, not a fair sample: it is rich in T/C values a quarter to a half above the control, in often repeated tests (any T/C) and in doses without a T/C. Other doses and runs of a compound stand elsewhere. T/C gives the treated animals as a percentage of the vehicle group. Some doses have a count of surviving animals in place of a T/C: the source files T/C as zero there, which appears to mark a toxic dose or a test without result, not a measured value. Some survivor counts are full or nearly so, which does not show that the dose was tolerated: survival well below the control is almost never listed, so the zero probably covers shortened survival too. Survivors were counted at the toxicity check, usually on the fifth day, unless a day is given; later deaths do not show. Schedule codes are those of the source, taken here to give the interval after Q, in days (D) or hours (H), and the number of doses after X. Some entries were tested several times; the results are listed from low to high. Signs of the kind (2×) give the number of equal values in this list. Where survival is the endpoint, the PubChem record calls one and a half times the control and up active, and a quarter to a half above the control has no call in these data; cut-offs in other NCI protocols can differ. Some T/C values are followed by the survivors on the day toxicity was checked, most often the fifth; without a count, all were alive then.

System: P388 leukemia ip, CD2F1 mice, survival T/C
Assay: NCI In Vivo Anticancer Drug Screen. Data for tumor model P388 Leukemia (intraperitoneal) in CD2F1 (CDF1) mice
Settings: T/C endpoint: median survival time, higher T/C = longer survival
[1] = dose: 25.0 mg/kg/injection, schedule: Q01DX005 (ip), vehicle: Klucel (hydroxypropylcellulose) (HPC)
[2] = dose: 240.0 mg/kg/injection, schedule: Q01DX005 (ip), vehicle: Klucel (hydroxypropylcellulose) (HPC)

In the case of `COC1CC2C=C(C)/C=C/C=C/C(=O)NC(c3ccccc3)C/C=C/CCC(O)CC(=O)C2=C1O` (stereo not drawn), the T/C (dose: 3.12 mg/kg/injection, schedule: Q01DX005 (ip), vehicle: Klucel (hydroxypropylcellulose) (HPC), evaluated on day 20) is reported as 117 % of control, the T/C (dose: 3.12 mg/kg/injection, schedule: Q01DX005 (ip), vehicle: Klucel (hydroxypropylcellulose) (HPC), evaluated on day 30) is reported as 97, 100, 114, 122 % of control and the T/C (dose: 6.25 mg/kg/injection, schedule: Q01DX005 (ip), vehicle: Klucel (hydroxypropylcellulose) (HPC), evaluated on day 20) is reported as 129 % of control. For the same compound, the T/C (dose: 6.25 mg/kg/injection, schedule: Q01DX005 (ip), vehicle: Klucel (hydroxypropylcellulose) (HPC), evaluated on day 30) was 108, 117, 118, 124 % of control, the T/C (dose: 12.5 mg/kg/injection, schedule: Q01DX005 (ip), vehicle: Klucel (hydroxypropylcellulose) (HPC), evaluated on day 20) was 133 % of control and the T/C (dose: 12.5 mg/kg/injection, schedule: Q01DX005 (ip), vehicle: Klucel (hydroxypropylcellulose) (HPC), evaluated on day 30) was 124, 127, 134, 140 % of control. The T/C [1] was 153 [5 of 6 alive] and 161 % of control, the survivor count [1] was 3 of 6, 5 of 5, 6 of 6 and the survivor count (dose: 50.0 mg/kg/injection, schedule: Q01DX005 (ip), vehicle: Klucel (hydroxypropylcellulose) (HPC)) was 0 of 5, 0 of 6 (2×), 1 of 5, 2 of 6. The survivor count (dose: 100.0 mg/kg/injection, schedule: Q01DX005 (ip), vehicle: Klucel (hydroxypropylcellulose) (HPC)) was 0 of 5, the survivor count (dose: 200.0 mg/kg/injection, schedule: Q01DX005 (ip), vehicle: Klucel (hydroxypropylcellulose) (HPC)) was 0 of 5 and the survivor count (dose: 400.0 mg/kg/injection, schedule: Q01DX005 (ip), vehicle: Klucel (hydroxypropylcellulose) (HPC)) was 0 of 5.
`ClCCN(CCCl)c1ccc(/C=N/Nc2c3ccccc3nc3ccccc23)cc1` was tested, and the survivor count (dose: 25.0 mg/kg/injection, schedule: Q01DX009 (ip), vehicle: DMSO) was 1 of 6, the survivor count (dose: 50.0 mg/kg/injection, schedule: Q01DX009 (ip), vehicle: DMSO) was 0 of 6 and the survivor count (dose: 100.0 mg/kg/injection, schedule: Q01DX009 (ip), vehicle: DMSO) was 0 of 6. The survivor count (dose: 200.0 mg/kg/injection, schedule: Q01DX009 (ip), vehicle: DMSO) was 0 of 5.
`CCC(C)P(=O)(N1CC1)N1CC1` (stereo not drawn) was tested, and the T/C (dose: 12.5 mg/kg/injection, schedule: Q01DX009 (ip), vehicle: saline) was 127 % of control and the T/C (dose: 12.5 mg/kg/injection, schedule: Q04DX003 (ip), vehicle: saline) was 140 % of control.
With `[N-]=[N+]=CC(=O)Oc1ccc([N+](=O)[O-])cc1` the survivor count (dose: 50.0 mg/kg/injection, schedule: Q01DX009 (ip), vehicle: other) was 6 of 6, the survivor count (dose: 100.0 mg/kg/injection, schedule: Q01DX009 (ip), vehicle: other) was 6 of 6 and the survivor count (dose: 200.0 mg/kg/injection, schedule: Q01DX009 (ip), vehicle: other) was 2 of 6. For the same compound, the survivor count (dose: 400.0 mg/kg/injection, schedule: Q01DX009 (ip), vehicle: other) was 0 of 6.
In the case of `CC(CN(C)C)CN1c2ccccc2Sc2ccccc21` (stereo not drawn), the T/C (dose: 50.0 mg/kg/injection, schedule: Q04DX003 (ip), vehicle: saline with Tween-80) is reported as 129 and 131 % of control [5 of 6 alive], the survivor count (dose: 75.0 mg/kg/injection, schedule: Q04DX003 (ip), vehicle: saline with Tween-80) is reported as 3 of 6 and the survivor count (dose: 100.0 mg/kg/injection, schedule: Q04DX003 (ip), vehicle: saline with Tween-80) is reported as 3 of 6. The survivor count (dose: 200.0 mg/kg/injection, schedule: Q04DX003 (ip), vehicle: saline with Tween-80) was 0 of 6.
`CCOC(=O)/[C](=N\N=P(N(C)C)(N(C)C)N(C)C)[Hg]/[C](=N/N=P(N(C)C)(N(C)C)N(C)C)C(=O)OCC` was tested, and the T/C (dose: 50.0 mg/kg/injection, schedule: Q01DX009 (ip), vehicle: saline) was 125 % of control, the survivor count (dose: 100.0 mg/kg/injection, schedule: Q01DX009 (ip), vehicle: saline) was 0 of 6 and the survivor count (dose: 200.0 mg/kg/injection, schedule: Q01DX009 (ip), vehicle: saline) was 0 of 6.
In the case of `O=C1NC(=O)/C(=C\c2ccco2)S1`, the survivor count (dose: 50.0 mg/kg/injection, schedule: Q01DX009 (ip), vehicle: Klucel (hydroxypropylcellulose) (HPC)) is reported as 0 of 6.
For `COC1(OC)C(C)C(C#N)(C#N)C1(OC)OC` (stereo not drawn), the survivor count [2] was 0 of 6.
In the case of `CNC(=S)NC(C)(C)C`, the survivor count (dose: 120.0 mg/kg/injection, schedule: Q01DX005 (ip), vehicle: Klucel (hydroxypropylcellulose) (HPC)) is reported as 0 of 6 and the survivor count [2] is reported as 0 of 6.
